In the supplement of paper PMC4604168 (melanoma cell lines):
The other results are listed elsewhere or left out. Many values rest on one well or one pass, so single values are uncertain.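 The apoptosis fraction was the count of cleaved-PARP antibody-stained nuclei relative to all DNA-stained nuclei, imaged in 1,536-well plates. Screening doses were set so most cells survived, and baseline and induced cleaved-PARP levels vary greatly across cell lines.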

What was measured:
Experiment in all cases: cleaved PARP positive nuclei fraction relative to DMSO control; melanoma cells; higher = more apoptosis
Settings in all cases: library dose: low library concentration; 72 h
[1] = test system: 501Mel
[2] = test system: A101D
[3] = test system: A2058
[4] = test system: A375
[5] = test system: C32
[6] = test system: CBRC008 (line from a melanoma biopsy)
[7] = test system: CBRC013 (line from a melanoma biopsy)
[8] = test system: CBRC014 (line from a melanoma biopsy)
[9] = test system: CBRC016 (line from a melanoma biopsy)
[10] = test system: CBRC017 (line from a melanoma biopsy)
[11] = test system: COLO792
[12] = test system: COLO800
[13] = test system: COLO829
[14] = test system: G361
[15] = test system: IPC-298
[16] = test system: IST-MEL1
[17] = test system: LB2518-MEL
[18] = test system: LOXIMVI
[19] = test system: MEL-HO

Compound | cleaved PARP positive nuclei fraction [1] | cleaved PARP positive nuclei fraction [2] | cleaved PARP positive nuclei fraction [3] | cleaved PARP positive nuclei fraction [4] | cleaved PARP positive nuclei fraction [5] | cleaved PARP positive nuclei fraction [6] | cleaved PARP positive nuclei fraction [7] | cleaved PARP positive nuclei fraction [8] | cleaved PARP positive nuclei fraction [9] | cleaved PARP positive nuclei fraction [10] | cleaved PARP positive nuclei fraction [11] | cleaved PARP positive nuclei fraction [12] | cleaved PARP positive nuclei fraction [13] | cleaved PARP positive nuclei fraction [14] | cleaved PARP positive nuclei fraction [15] | cleaved PARP positive nuclei fraction [16] | cleaved PARP positive nuclei fraction [17] | cleaved PARP positive nuclei fraction [18] | cleaved PARP positive nuclei fraction [19]
Cc1cn(-c2cc(NC(=O)c3ccc(C)c(Nc4nccc(-c5cccnc5)n4)c3)cc(C(F)(F)F)c2)cn1 [nilotinib] + COc1cc2c(Oc3ccc4[nH]c(C)cc4c3F)ncnc2cc1OCCCN1CCCC1 [cediranib] (first compound 0.2 µM, partner dose 0.4 µM) | 91.1% | 89.6% | 31.7% | 90.3% | 65.8% | 60.1% | 102% | 84% | 77.9% | 87.8% | 114% | 63.4% | 66.6% | 53.9% | 87.5% | 97.8% | 91.8% | 109% | 134%
O=C(/C=C/c1cccnc1)NCCCCC1CCN(C(=O)c2ccccc2)CC1 + Cc1cc(N2CCOCC2)cc2[nH]c(-c3c(NC[C@@H](O)c4cccc(Cl)c4)cc[nH]c3=O)nc12 [BMS536924] (first compound 0.01 µM, partner dose 0.2 µM) | 91.6% | 84.9% | 79.3% | 235% | 102% | 1690% | 243% | 91.6% | 339% | 767% | 364% | 271% | 460% | 2780% | 160% | 69.7% | 154% | 66.3% | 730%
CCCCCCCCCCCCCCCCCCOP(=O)([O-])OC1CC[N+](C)(C)CC1 [Perifosine] + CN(NC(=O)CC(=O)NN(C)C(=S)c1ccccc1)C(=S)c1ccccc1 [STA4783] (first compound 0.4 µM, partner dose 0.006 µM) | 196% | 110% | 94.3% | 3120% | 166% | 1190% | 173% | 533% | 81.1% | 125% | 188% | 68.3% | 166% | 156% | 124% | 242% | 116% | 81.5% | 76.7%
CCCCCCCCCCCCCCCCCCOP(=O)([O-])OC1CC[N+](C)(C)CC1 [Perifosine] + O=C(CCCCCCC(=O)Nc1ccccc1)NO [vorinostat] (first compound 0.4 µM, partner dose 0.08 µM) | 137% | 138% | 242% | 294% | 105% | 58.7% | 102% | 72% | 240% | 74.6% | 96.3% | 84.3% | 150% | 95% | 229% | 97.2% | 50.3% | 68% | 124%
O=c1[nH]nc(Sc2ncc([N+](=O)[O-])s2)n1-c1ccc2c(c1)OCCO2 + O=C(O)c1ccc(-c2c[nH]c3ncc(-c4ccccc4)cc23)cc1C1CCCC1 [GSK650394] (first compound 0.2 µM, partner dose 0.16 µM) | 87.8% | 81.2% | 116% | 107% | 96.3% | 104% | 72.3% | 84.2% | 102% | 82.5% | 81.1% | 128% | 57.5% | 163% | 45.3% | 161% | 145% | 123% | 72.2%
Cc1ccc(Nc2nccc(N(C)c3ccc4c(C)n(C)nc4c3)n2)cc1S(N)(=O)=O [Pazopanib] + CC1(C)NC(=O)N(c2ccc([N+](=O)[O-])c(C(F)(F)F)c2)C1=O [nilutamide] (first compound 0.4 µM, partner dose 1 µM) | 75.4% | 80.5% | 77% | 86.4% | 35% | 181% | 88.8% | 93% | 179% | 109% | 44.1% | 85.6% | 142% | 273% | 47.6% | 64.2% | 84.2% | 49.7% | 108%
N#CC[C@H](C1CCCC1)n1cc(-c2ncnc3[nH]ccc23)cn1 [ruxolitinib] + CN(C)S(=O)(=O)c1ccc2c(c1)/C(=C/c1cc3c([nH]1)CCCC3)C(=O)N2 [SU6656] (first compound 1 µM, partner dose 0.4 µM) | 88.5% | 152% | 135% | 29.8% | 118% | 192% | 157% | 78.5% | 108% | 110% | 191% | 78.1% | 79.3% | 169% | 50.3% | 35% | 175% | 23.2% | 135%
Cc1ccc(Nc2nccc(N(C)c3ccc4c(C)n(C)nc4c3)n2)cc1S(N)(=O)=O [Pazopanib] + Cc1ccc(NC(=O)c2cccc(N(C)C)c2)cc1NC(=O)c1ccc(O)cc1 [ZM336372] (first compound 0.4 µM, partner dose 2 µM) | 416% | 41.8% | 94.2% | 143% | 75.8% | 87.5% | 75.6% | 96.1% | 83.4% | 96.4% | 157% | 92.7% | 41.7% | 119% | 117% | 97.7% | 146% | 20.6% | 66.7%
CCCCCCCCCCCCCCCCCCOP(=O)([O-])OC1CC[N+](C)(C)CC1 [Perifosine] + NC(=O)Nc1cc(-c2cccc(F)c2)sc1C(=O)N[C@H]1CCCNC1 [AZD7762] (first compound 0.4 µM, partner dose 0.02 µM) | 78.2% | 67.4% | 110% | 319% | 124% | 157% | 64.2% | 87.6% | 117% | 91.6% | 55.5% | 149% | 67.4% | 107% | 80.7% | 27.9% | 83.8% | 47.7% | 141%
Cc1cc(Nc2cc(N3CCN(C)CC3)nc(Sc3ccc(NC(=O)C4CC4)cc3)n2)n[nH]1 [Tozasertib] + NC(=O)Nc1cc(-c2cccc(F)c2)sc1C(=O)N[C@H]1CCCNC1 [AZD7762] (first compound 0.006 µM, partner dose 0.02 µM) | 83.2% | 94.2% | 38.3% | 548% | 230% | 107% | 91% | 86% | 168% | 91.8% | 114% | 23.5% | 91.1% | 128% | 87.1% | 96.6% | 41% | 811% | 66.3%
CC[C@]1(O)C[C@H]2CN(CCc3c([nH]c4ccccc34)[C@@](C(=O)OC)(c3cc4c(cc3OC)N(C=O)[C@H]3[C@@](O)(C(=O)OC)[C@H](OC(C)=O)[C@]5(CC)C=CCN6CC[C@]43[C@@H]65)C2)C1 [vincristine] + Cn1cncc1[C@@](N)(c1ccc(Cl)cc1)c1ccc2c(c1)c(-c1cccc(Cl)c1)cc(=O)n2C [tipifarnib] (first compound 0.0001 µM, partner dose 0.01 µM) | 230% | 116% | 1640% | 125% | 237% | 141% | 182% | 81.7% | 135% | 139% | 66% | 104% | 198% | 34.4% | 50.4% | 102% | 58% | 540% | 155%
O=C(Nc1cc(C(F)(F)F)cc(C(F)(F)F)c1)c1cc(Cl)ccc1O + COc1cc2c(Oc3ccc4[nH]c(C)cc4c3F)ncnc2cc1OCCCN1CCCC1 [cediranib] (first compound 0.016 µM, partner dose 0.4 µM) | 90.9% | 89% | 302% | 129% | 158% | 61.4% | 98% | 82% | 97.2% | 113% | 224% | 93.1% | 87.2% | 32.8% | 194% | 52.3% | 220% | 135% | 74.4%
O=C(/C=C/c1cccnc1)NCCCCC1CCN(C(=O)c2ccccc2)CC1 + CN(NC(=O)CC(=O)NN(C)C(=S)c1ccccc1)C(=S)c1ccccc1 [STA4783] (first compound 0.01 µM, partner dose 0.006 µM) | 643% | 228% | 63.1% | 10600% | 189% | 4440% | 140% | 160% | 487% | 981% | 495% | 224% | 367% | 3880% | 112% | 428% | 195% | 321% | 343%
Cc1cn(-c2cc(NC(=O)c3ccc(C)c(Nc4nccc(-c5cccnc5)n4)c3)cc(C(F)(F)F)c2)cn1 [nilotinib] + OCCn1cc(-c2cnc3nnn(Cc4ccc5ncccc5c4)c3n2)cn1 [PF04217903] (first compound 0.2 µM, partner dose 1 µM) | 79.2% | 124% | 113% | 138% | 39.6% | 125% | 164% | 77.9% | 106% | 91.6% | 87.6% | 94.7% | 151% | 74.5% | 183% | 21.1% | 66.7% | 70.3% | 73.3%
CC[C@]1(O)C[C@H]2CN(CCc3c([nH]c4ccccc34)[C@@](C(=O)OC)(c3cc4c(cc3OC)N(C=O)[C@H]3[C@@](O)(C(=O)OC)[C@H](OC(C)=O)[C@]5(CC)C=CCN6CC[C@]43[C@@H]65)C2)C1 [vincristine] + C=CCn1c(=O)c2cnc(Nc3ccc(N4CCN(C)CC4)cc3)nc2n1-c1cccc(C(C)(C)O)n1 [MK1775] (first compound 0.0001 µM, partner dose 0.02 µM) | 96.5% | 305% | 292% | 247% | 201% | 233% | 190% | 127% | 145% | 129% | 82.9% | 75.2% | 133% | 66.6% | 101% | 51.9% | 78.9% | 89.6% | 145%
Cc1cc(Nc2cc(N3CCN(C)CC3)nc(Sc3ccc(NC(=O)C4CC4)cc3)n2)n[nH]1 [Tozasertib] + CN(C)S(=O)(=O)c1ccc2c(c1)/C(=C/c1cc3c([nH]1)CCCC3)C(=O)N2 [SU6656] (first compound 0.006 µM, partner dose 0.4 µM) | 223% | 55.2% | 51.7% | 236% | 116% | 188% | 105% | 89.1% | 111% | 84.3% | 123% | 185% | 78.2% | 113% | 183% | 44.7% | 33.7% | 474% | 94%

Random excerpt: 2 entries already listed
Compound | cleaved PARP positive nuclei fraction [1] | cleaved PARP positive nuclei fraction [2] | cleaved PARP positive nuclei fraction [3] | cleaved PARP positive nuclei fraction [4] | cleaved PARP positive nuclei fraction [5] | cleaved PARP positive nuclei fraction [6] | cleaved PARP positive nuclei fraction [7] | cleaved PARP positive nuclei fraction [8] | cleaved PARP positive nuclei fraction [9] | cleaved PARP positive nuclei fraction [10] | cleaved PARP positive nuclei fraction [11] | cleaved PARP positive nuclei fraction [12] | cleaved PARP positive nuclei fraction [13] | cleaved PARP positive nuclei fraction [14] | cleaved PARP positive nuclei fraction [15] | cleaved PARP positive nuclei fraction [16] | cleaved PARP positive nuclei fraction [17] | cleaved PARP positive nuclei fraction [18] | cleaved PARP positive nuclei fraction [19]
O=c1[nH]nc(Sc2ncc([N+](=O)[O-])s2)n1-c1ccc2c(c1)OCCO2 + O=C(O)c1ccc(-c2c[nH]c3ncc(-c4ccccc4)cc23)cc1C1CCCC1 [GSK650394] (first compound 0.2 µM, partner dose 0.16 µM) | 87.8% | 81.2% | 116% | 107% | 96.3% | 104% | 72.3% | 84.2% | 102% | 82.5% | 81.1% | 128% | 57.5% | 163% | 45.3% | 161% | 145% | 123% | 72.2%
CCCCCCCCCCCCCCCCCCOP(=O)([O-])OC1CC[N+](C)(C)CC1 [Perifosine] + CN(NC(=O)CC(=O)NN(C)C(=S)c1ccccc1)C(=S)c1ccccc1 [STA4783] (first compound 0.4 µM, partner dose 0.006 µM) | 196% | 110% | 94.3% | 3120% | 166% | 1190% | 173% | 533% | 81.1% | 125% | 188% | 68.3% | 166% | 156% | 124% | 242% | 116% | 81.5% | 76.7%
